Measurements as given in publication PMC11335225.
These are yes or no findings as the source states them, for the method shown. In cells and extracts the contact can be indirect. A yes stands for co-enrichment or nearness to the bait. Other partners may have been found. For some assays here: Tags and fused reporters may be left off the sequences shown.

Amino acid sequences for entries named in this document (tags omitted). A change or cut given only in a name is not applied to a line headed by its entry.
UniProt Q6PIU1: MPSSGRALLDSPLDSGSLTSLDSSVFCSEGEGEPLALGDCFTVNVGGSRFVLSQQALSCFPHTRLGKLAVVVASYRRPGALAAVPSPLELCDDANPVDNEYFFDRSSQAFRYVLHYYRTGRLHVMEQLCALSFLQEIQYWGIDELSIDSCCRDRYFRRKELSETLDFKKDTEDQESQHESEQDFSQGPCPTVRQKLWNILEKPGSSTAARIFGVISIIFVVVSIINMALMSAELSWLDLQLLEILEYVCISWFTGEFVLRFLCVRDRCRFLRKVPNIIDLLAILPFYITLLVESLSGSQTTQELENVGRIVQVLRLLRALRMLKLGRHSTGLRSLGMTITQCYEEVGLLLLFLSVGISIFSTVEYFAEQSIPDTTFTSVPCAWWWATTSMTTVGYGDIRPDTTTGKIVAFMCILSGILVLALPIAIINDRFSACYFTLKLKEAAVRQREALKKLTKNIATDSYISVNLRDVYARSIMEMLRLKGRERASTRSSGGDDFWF
UniProt O43526: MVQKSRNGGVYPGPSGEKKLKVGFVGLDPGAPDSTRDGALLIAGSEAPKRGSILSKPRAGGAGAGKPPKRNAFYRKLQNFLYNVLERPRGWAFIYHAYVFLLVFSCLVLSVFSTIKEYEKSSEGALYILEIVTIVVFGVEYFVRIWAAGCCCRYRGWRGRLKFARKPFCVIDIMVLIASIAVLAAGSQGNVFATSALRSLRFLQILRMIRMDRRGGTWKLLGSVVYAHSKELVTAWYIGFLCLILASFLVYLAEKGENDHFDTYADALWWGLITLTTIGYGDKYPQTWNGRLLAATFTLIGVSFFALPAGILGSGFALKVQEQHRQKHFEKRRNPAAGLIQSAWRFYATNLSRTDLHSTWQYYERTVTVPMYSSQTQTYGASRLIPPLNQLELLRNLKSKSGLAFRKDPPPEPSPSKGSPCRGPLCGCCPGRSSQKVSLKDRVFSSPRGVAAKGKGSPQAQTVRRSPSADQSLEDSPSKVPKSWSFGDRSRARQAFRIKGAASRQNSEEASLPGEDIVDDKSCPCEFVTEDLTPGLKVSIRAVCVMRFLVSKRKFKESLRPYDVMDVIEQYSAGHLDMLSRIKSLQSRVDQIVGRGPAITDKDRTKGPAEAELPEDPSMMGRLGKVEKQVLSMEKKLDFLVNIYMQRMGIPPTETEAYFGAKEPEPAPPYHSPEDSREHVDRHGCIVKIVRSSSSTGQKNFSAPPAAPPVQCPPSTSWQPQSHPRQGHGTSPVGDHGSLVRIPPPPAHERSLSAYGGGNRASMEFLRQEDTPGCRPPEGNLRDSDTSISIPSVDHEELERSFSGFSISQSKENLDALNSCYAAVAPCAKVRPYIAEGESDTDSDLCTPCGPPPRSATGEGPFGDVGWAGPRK

Legend:
BioID2-HA-tagged KV8.1 = BioID2-HA-tagged KV8.1 (UniProt Q6PIU1); assay: proximity labelling; BioID: KVS-BioID2-HA and flag-tagged KV7.2 co-expressed in HEK293 cells, 50 uM biotin for 18-24 h, RIPA lysis, biotinylated proteins purified on magnetic streptavidin beads, anti-flag western blot
BioID2-HA-tagged KV8.2 = target: T1, BioID2-HA-tagged KV8.2 (UniProt Q8TDN2); assay: as above
T1 sequence: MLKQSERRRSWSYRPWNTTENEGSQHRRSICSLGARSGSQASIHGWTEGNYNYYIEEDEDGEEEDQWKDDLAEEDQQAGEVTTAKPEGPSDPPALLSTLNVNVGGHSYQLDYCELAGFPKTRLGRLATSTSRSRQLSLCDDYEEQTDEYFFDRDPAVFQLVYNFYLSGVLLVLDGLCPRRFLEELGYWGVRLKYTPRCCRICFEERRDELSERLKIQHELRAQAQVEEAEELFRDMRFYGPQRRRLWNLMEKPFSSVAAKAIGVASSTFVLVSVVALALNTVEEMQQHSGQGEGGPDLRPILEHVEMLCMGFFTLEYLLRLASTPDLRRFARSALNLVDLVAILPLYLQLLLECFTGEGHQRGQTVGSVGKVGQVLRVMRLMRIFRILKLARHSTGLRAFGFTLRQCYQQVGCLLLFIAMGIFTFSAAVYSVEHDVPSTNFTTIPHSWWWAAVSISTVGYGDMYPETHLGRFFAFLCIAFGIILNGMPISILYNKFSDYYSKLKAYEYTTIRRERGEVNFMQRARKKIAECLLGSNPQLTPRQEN

flag-tagged KV7.2 channel subunit (from UniProt O43526 1-872)
binding (BioID2-HA-tagged KV8.1): binds
binding (BioID2-HA-tagged KV8.2): binds
